Measured values reported in PubChem BioAssay AID1469 (National Center for Advancing Translational Sciences (NCATS), 2008).
The whole screen tested about 280,000 compounds, of which about 180 (0.064%) were called active. Inconclusive results, whose numbers are uncertain, are shown with a selection of clear calls. The call rests on the fitted dose curve; in most records, active means well fitted inhibition curve with a large enough effect; inconclusive means small, poorly fitted or top-dose-only effect, or effect the other way; inactive means flat fitted curve, though single readings scatter. Potencies beside an inconclusive call are fits to weak or partial responses and may not hold up.

Protein sequences, listed by entry. Tags and fused reporters are not part of them. Lines headed by an entry give the natural chain unless they say otherwise; changes in a name come on top.
UniProt P10828: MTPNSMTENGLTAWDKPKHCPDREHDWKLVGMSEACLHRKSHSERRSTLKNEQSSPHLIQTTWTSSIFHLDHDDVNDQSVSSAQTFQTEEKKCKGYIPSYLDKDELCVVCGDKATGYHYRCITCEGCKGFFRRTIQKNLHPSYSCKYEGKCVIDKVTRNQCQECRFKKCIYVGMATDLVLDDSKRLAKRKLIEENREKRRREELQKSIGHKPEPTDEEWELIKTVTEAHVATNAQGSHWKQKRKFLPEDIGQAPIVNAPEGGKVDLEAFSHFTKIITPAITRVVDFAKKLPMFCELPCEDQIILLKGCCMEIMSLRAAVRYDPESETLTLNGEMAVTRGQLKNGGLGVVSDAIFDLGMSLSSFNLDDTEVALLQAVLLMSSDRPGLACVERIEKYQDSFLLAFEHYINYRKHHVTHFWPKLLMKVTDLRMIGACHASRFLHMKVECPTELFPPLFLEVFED

Target: Thyroid hormone receptor beta (Homo sapiens) (UniProt P10828)
Assay: qHTS for Inhibitors of the Interaction of Thyroid Hormone Receptor and Steroid Receptor Coregulator 2; further: nearly all actives have a fitted effect of over 50% in size;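 on activity change, negative = inhibition: plate controls were bound peptide for no effect and peptide without receptor for full effect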
Details: TRbeta-SRC2 peptide binding, fluorescence polarization, receptor liganded with 1 µM T3; series mostly up to 106 µM; activity change, negative = inhibition: at the top concentration
How it was run: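 Human TRb LBD (0.6 uM) plus Texas Red-labeled SRC2 peptide (20 nM), 1uM T3, 5% DMSO, 5 hr at ambient temperature. Decreased polarization (555/632 nm) flags inhibition; data normalized to free and bound peptide controls.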
Potency means the concentration at half of the fitted maximal effect.

Row | Compound | activity change, negative = inhibition | Potency
1 | O=S(=O)(c1ccccc1)c1ccccc1/C=N\O | inactive: 4.91% | 
2 | CC(=O)N(C)c1ccc(NC(=S)Nc2cccc3ccccc23)cc1 | inactive: 5.21% | 
3 | COC(=O)CN1C(=O)[C@@H]2[C@H](C1=O)[C@@H]1CC(C(=O)OC)=C[C@@H](C(=O)OC)C3C1=C(C(=O)C31CCCCC1)[C@@H]2C (stereo not given in full) | inactive: -0.486% | 
4 | COC1=CC(=O)C(C(=O)c2ccccc2)=CC1=O |  | inconclusive: 39.8 µM [inhibitor, partial curve]
5 | CCN(CC)c1ccc(C(=C2C=CC(=[N+](CC)Cc3cccc(S(=O)(=O)[O-])c3)C=C2)c2ccc(N(CC)Cc3cccc(S(=O)(=O)O)c3)cc2)cc1 |  | active: 11.2 µM
6 | O=C(c1cc2ccccc2oc1=O)N(c1ccccc1)C1C=CS(=O)(=O)C1 (stereo not given) |  | inconclusive: 7.08 µM [inhibitor, full curve, poor fit]
7 | COc1ccc(CNC(=O)CN2C(=O)CC(c3ccccc3)=Nc3ccccc32)cc1 |  | inconclusive: 79.4 µM [inhibitor, single point]
8 | COc1cc2cc3c(N)c(C(=O)Nc4sc(C)c(C)c4C#N)sc3nc2cc1OC |  | inconclusive: 39.8 µM [activator, partial curve]
9 | O=C(Nc1ccc(Cc2ccncc2)cc1)c1ccc(Cl)c([N+](=O)[O-])c1 | inactive: 3.36% | 
10 | O=C(O)/C=C/C(=O)Nc1ccc(O)cc1 |  | inconclusive: 35.5 µM [inhibitor, partial curve]
11 | O=[N+]([O-])c1cc(-c2cnc3ccccc3n2)ccc1Oc1ccc(Br)cc1 | inactive: -3.57% | 
12 | CC(C)=CCC1=C(OCC(=O)O)C(=O)c2ccccc2C1=O |  | inconclusive: 28.2 µM [inhibitor, full curve]
13 | COc1ccc(-c2cc(=O)[nH][nH]2)cc1OC |  | inconclusive: 7.94 µM [inhibitor, full curve, poor fit]
14 | CCNc1ccc(C(=O)O)cc1N |  | inconclusive: 39.8 µM [inhibitor, partial curve]
15 | O=C(N/N=C/c1ccc(-c2ccc(S(=O)(=O)Nc3ncccn3)cc2)o1)c1cc2ccccc2cc1O |  | inconclusive: 39.8 µM [activator, partial curve]
16 | CCOC(=O)C1=C(C)N=C2SC(C(=O)OC)=CC(=O)N2C1c1ccc(F)cc1 (stereo not given) |  | inconclusive: 79.4 µM [activator, single point]
17 | Oc1ccc2ccccc2c1/C=N/c1nccs1 |  | active: 35.5 µM
18 | Cc1ccc(-c2nn3c(-c4ccccc4C)nnc3c3ccccc23)cc1 | inactive: -2.81% | 
19 | Cc1ccc(C)c(N2CCN(c3ncnc4c3nc3n4CCCC3)CC2)c1 | inactive: -7.08% | 
20 | COc1ccc(Nc2ccc3c(c2)=NC2(CCCCC2)[N+]=3[O-])cc1 |  | inconclusive: 20 µM [inhibitor, full curve]
21 | COCCCNc1c2c3c(cccc3[nH]c1=O)C(=O)c1ccccc1-2 |  | inconclusive: 31.6 µM [inhibitor, partial curve]
22 | Cc1c(C(=O)NCc2ccc3c(c2)cc(C)n3C)cccc1[N+](=O)[O-] |  | inconclusive: 70.8 µM [inhibitor, single point]
23 | CN1C(=O)C(O)(CC(=O)/C=C\c2ccc3c(c2)OCO3)c2ccccc21 (stereo not given) |  | inconclusive: 50.1 µM [inhibitor, single point]
24 | Cc1ccc(S(=O)(=O)N2CCN(S(=O)(=O)N3CCCCC3)CC2)cc1 | inactive: 3.1% | 
25 | S=C(Nc1ccc2nsnc2c1)N1CCCC1 |  | inconclusive: 39.8 µM [inhibitor, partial curve]
26 | CCOC(=O)c1c(NC(=O)Cc2coc3cc(C)cc(C)c23)sc2c1CCC2 |  | inconclusive: 44.7 µM [inhibitor, partial curve]
27 | CC(=O)c1ccc(NC(=O)CSC2=Nc3ccccc3N=C(c3ccc(F)cc3)C2)cc1 | inactive: 1.1% | 
28 | C=CCn1c(C)cc(C(=O)CSc2nnc(Cc3ccccc3)o2)c1C |  | inconclusive: 50.1 µM [inhibitor, partial curve]

Row | Compound | activity change, negative = inhibition | Potency
29 | CN1/C(=C/C=C(C#N)C#N)C=Cc2ccccc21 |  | inconclusive: 70.8 µM [activator, single point]
30 | COc1ccccc1OCC(=O)OC/C(O)=C(\C#N)c1nc2ccccc2[nH]1 |  | inconclusive: 7.08 µM [inhibitor, partial curve]
31 | O=C(Cc1ccc(Cl)cc1)Nc1ccc(NC(=O)c2ccccc2)cc1 | inactive: 0.656% | 
32 | CN1CCc2c(sc3c2C(=O)NC(c2ccccn2)N3)C1 (stereo not given) |  | active: 10 µM
33 | O=C(CN1C(=O)c2ccccc2C1=O)Nc1ccc(-c2nc3ccccc3o2)cc1 |  | inconclusive: 100 µM [inhibitor, partial curve, poor fit]
34 | Cc1onc(-c2ccccc2)c1CNC(=O)Nc1ccc(F)cc1F |  | inconclusive: 35.5 µM [activator, single point]
35 | CC(=O)c1cccc(NC(=O)Cn2c(=O)c(CNc3ccc(C)cc3)cc3cc4c(cc32)OCCO4)c1 | inactive: -2.3% | 
36 | CN(C(=S)Nc1ccc(SC(F)F)cc1)c1ccc(O)cc1 |  | inconclusive: 44.7 µM [inhibitor, partial curve]
37 | CC1CCCC(C)N1CC(O)COc1ccc(Cl)cc1 (stereo not given) |  | inconclusive: 126 µM [inhibitor, partial curve, poor fit]
38 | Cc1[nH]c2ccccc2c1N=Nc1cccc(C(=O)O)c1 | inactive: 0.0355% | 
39 | N#C/C(=C/c1ccc(-c2ccc(S(N)(=O)=O)cc2)o1)C(=O)Nc1ccccc1 |  | inconclusive: 50.1 µM [activator, partial curve]
40 | CC(C)C1Nc2c(O)cc(Cl)c([N+](=O)[O-])c2C2C=CCC21 (stereo not given) |  | inconclusive: 56.2 µM [inhibitor, partial curve, poor fit]
41 | COc1ccc2ccc3c(c2c1)N=CC1(O3)N(C)c2ccccc2C1(C)C (stereo not given) |  | active: 28.2 µM
42 | CC1CCC/C(=C\Nc2ccc(O)cc2)C1=O (stereo not given) |  | active: 28.2 µM
43 | O=C1CCCC(O)=C1N=Nc1ccc(S(=O)(=O)N2CCOCC2)cc1 |  | inconclusive: 50.1 µM [inhibitor, partial curve]
44 | N#Cc1c(N2CCCC2)nc(N)c2c(N)nc(N3CCCC3)cc12 |  | inconclusive: 31.6 µM [inhibitor, full curve]
45 | COc1ccc2nc3oc(C(=O)Nc4ccc(OC)c(OC)c4)cc3cc2c1 |  | inconclusive: 79.4 µM [inhibitor, partial curve]
46 | Cc1ccc(SCc2ccc(C(=O)N3CCCC3)cc2)cc1 | inactive: 1.03% | 
47 | O=[N+]([O-])c1ccc(O)c(C2=NNC(c3ccccc3F)C2)c1 (stereo not given) | inactive: 6.21% | 
48 | O=[N+]([O-])c1cc(/C=N/n2cnnc2)ccc1N1CCCC1 | inactive: -7.27% | 
49 | COC(=O)c1ccc2c(c1)C(C)(C)C(/C=C/c1ccc(OC)c(OC)c1OC)=[N+]2C |  | inconclusive: 22.4 µM [activator, partial curve]
50 | COc1ccc(NC(=S)NC(NC(=O)/C=C/c2ccccc2)C(Cl)(Cl)Cl)cc1 (stereo not given) | inactive: 4.03% | 
51 | CCOc1cc(NC(=O)CCl)c(OCC)cc1NC(=O)CCl |  | inconclusive: 28.2 µM [inhibitor, full curve, poor fit]
52 | Cc1[nH]c2ccc(C(=O)O)cc2c1C |  | inconclusive: 126 µM [inhibitor, partial curve, poor fit]
53 | O=C(NC1=NCCS1)C1CC2CCC1C2 (stereo not given) |  | inconclusive: 126 µM [inhibitor, partial curve, poor fit]
54 | CCOc1c(Cl)cc(CNc2ccc(N3CCCC3)cc2)cc1OC |  | inconclusive: 63.1 µM [inhibitor, partial curve, poor fit]
55 | CCOc1ccc(NC(=O)CCC(=O)NNC(=O)COc2ccccc2C)cc1 |  | inconclusive: 25.1 µM [inhibitor, single point]

Single records, from the list above:
`COc1ccc(NC(=S)NC(NC(=O)/C=C/c2ccccc2)C(Cl)(Cl)Cl)cc1` (stereo not given) is listed as activity change, negative = inhibition: inactive: 4.03%
`CN(C(=S)Nc1ccc(SC(F)F)cc1)c1ccc(O)cc1` is listed as Potency: inconclusive: 44.7 µM [inhibitor, partial curve]
`CC(C)C1Nc2c(O)cc(Cl)c([N+](=O)[O-])c2C2C=CCC21` (stereo not given) is listed as Potency: inconclusive: 56.2 µM [inhibitor, partial curve, poor fit]
